No constants are given. Whether binding was seen depends on the method and setting. Binding seen in cells or lysates may run through a third protein. Some binding calls cover weakened binding; strength is not graded here.
Biological target: T1, ELT-2::VN173 (C. elegans) (UniProt Q10655)
T1 sequence: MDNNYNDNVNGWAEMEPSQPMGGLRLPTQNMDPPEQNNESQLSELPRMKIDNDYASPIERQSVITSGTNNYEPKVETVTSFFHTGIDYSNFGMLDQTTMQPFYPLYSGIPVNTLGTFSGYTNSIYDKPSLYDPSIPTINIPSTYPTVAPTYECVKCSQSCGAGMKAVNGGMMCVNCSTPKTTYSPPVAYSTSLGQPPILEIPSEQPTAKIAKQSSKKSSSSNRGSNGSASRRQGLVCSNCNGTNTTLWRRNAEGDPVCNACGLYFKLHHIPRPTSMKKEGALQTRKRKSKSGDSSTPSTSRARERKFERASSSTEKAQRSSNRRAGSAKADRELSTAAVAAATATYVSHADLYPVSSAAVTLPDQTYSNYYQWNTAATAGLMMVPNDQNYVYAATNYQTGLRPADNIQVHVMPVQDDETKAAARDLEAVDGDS
Test: split reporter; BiFC in living transgenic C. elegans; VN173 and VC155 fusions under Phsp-16.41; heat shock 3 h at 33°C, recovery 12 hours at 20°C; fluorescence stereomicroscope, Copas Biosort for quantification; also after RNAi of selected proteasome genes

Protein sequences, listed by entry. Tags and fused reporters are not part of them.
UniProt Q9XTT9: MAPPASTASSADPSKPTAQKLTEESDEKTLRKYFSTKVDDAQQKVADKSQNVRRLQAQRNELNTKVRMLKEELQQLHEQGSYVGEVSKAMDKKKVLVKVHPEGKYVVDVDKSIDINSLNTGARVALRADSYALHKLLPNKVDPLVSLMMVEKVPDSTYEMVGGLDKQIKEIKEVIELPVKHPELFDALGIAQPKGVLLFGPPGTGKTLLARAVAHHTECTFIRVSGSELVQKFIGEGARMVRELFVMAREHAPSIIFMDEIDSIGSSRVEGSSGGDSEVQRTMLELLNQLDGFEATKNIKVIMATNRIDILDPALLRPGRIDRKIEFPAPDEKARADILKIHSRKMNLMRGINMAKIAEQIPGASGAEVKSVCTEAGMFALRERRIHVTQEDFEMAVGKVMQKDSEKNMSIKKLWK

RPT-6::VC155 (from UniProt Q9XTT9 1-416)
binding: binds

Reference: paper PMC6179307 (2018)
